These are yes or no findings as the source states them, for the method shown. In cells and extracts the contact can be indirect.
T1: Serum amyloid A-like 1 (SAAL1) (human (endogenous in SK-Hep1)) (UniProt Q96ER3)
T1 sequence: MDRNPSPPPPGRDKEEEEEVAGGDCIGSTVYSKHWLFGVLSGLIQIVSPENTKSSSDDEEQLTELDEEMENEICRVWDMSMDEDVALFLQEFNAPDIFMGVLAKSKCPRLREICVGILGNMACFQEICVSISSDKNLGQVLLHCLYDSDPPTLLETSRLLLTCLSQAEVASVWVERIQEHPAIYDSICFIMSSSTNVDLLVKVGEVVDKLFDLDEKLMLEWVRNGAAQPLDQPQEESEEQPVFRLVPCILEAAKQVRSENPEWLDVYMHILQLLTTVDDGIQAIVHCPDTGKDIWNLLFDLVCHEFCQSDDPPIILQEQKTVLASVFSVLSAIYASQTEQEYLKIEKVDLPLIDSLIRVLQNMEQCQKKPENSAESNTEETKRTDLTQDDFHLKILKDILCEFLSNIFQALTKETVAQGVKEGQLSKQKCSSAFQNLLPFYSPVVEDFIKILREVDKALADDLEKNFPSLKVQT

Sequences of proteins named here, by UniProt entry; tags and fusion partners are left off. Residues count along the entry.
UniProt P08581, residues 25-1390: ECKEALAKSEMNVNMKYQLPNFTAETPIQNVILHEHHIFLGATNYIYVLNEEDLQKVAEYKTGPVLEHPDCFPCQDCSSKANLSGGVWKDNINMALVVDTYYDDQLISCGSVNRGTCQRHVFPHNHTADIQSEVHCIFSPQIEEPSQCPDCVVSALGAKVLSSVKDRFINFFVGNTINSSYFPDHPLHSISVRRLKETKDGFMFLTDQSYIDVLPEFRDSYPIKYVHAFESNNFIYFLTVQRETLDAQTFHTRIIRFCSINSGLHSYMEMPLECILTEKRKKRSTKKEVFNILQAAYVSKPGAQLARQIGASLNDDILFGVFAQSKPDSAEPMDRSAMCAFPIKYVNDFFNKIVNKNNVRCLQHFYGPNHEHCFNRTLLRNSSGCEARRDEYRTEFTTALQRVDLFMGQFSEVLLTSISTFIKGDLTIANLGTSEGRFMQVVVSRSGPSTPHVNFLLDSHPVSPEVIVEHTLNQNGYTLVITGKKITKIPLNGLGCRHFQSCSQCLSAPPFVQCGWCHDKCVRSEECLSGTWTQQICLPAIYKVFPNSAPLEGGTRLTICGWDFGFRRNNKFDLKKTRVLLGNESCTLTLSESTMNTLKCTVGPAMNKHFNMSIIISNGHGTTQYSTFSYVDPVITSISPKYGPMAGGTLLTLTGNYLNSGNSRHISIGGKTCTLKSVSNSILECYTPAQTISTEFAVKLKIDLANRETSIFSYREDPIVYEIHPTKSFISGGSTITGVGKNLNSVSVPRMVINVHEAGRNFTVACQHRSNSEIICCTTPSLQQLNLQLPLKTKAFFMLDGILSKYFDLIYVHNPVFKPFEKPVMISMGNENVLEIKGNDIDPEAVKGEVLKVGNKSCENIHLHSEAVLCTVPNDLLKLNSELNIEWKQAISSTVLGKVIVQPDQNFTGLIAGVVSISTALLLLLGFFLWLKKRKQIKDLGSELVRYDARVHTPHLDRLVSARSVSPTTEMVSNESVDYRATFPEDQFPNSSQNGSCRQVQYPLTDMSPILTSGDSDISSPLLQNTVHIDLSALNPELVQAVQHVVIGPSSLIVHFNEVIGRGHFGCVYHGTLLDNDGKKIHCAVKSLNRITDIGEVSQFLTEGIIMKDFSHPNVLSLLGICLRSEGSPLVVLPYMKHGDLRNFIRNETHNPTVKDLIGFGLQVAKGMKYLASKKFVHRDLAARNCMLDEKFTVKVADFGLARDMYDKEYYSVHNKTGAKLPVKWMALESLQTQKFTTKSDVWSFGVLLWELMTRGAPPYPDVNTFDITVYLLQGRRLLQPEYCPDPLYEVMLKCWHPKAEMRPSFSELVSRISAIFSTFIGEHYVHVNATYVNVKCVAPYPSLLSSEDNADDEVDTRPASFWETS


What was measured:
[1] = target: T1, Serum amyloid A-like 1 (SAAL1) (human (endogenous in SK-Hep1)); test: co-IP; SK-Hep1 cells serum-starved 16 h, stimulated with 50 ng/mL HGF for one hour; lysate in co-IP buffer (0.5% NP-40, 25 mM Tris-HCl, 150 mM NaCl, 2 mM EDTA); IP with anti-SAAL1 or anti-Met antibody and protein G magnetic beads; Western blot
[2] = target: T1, Serum amyloid A-like 1 (SAAL1) (human (endogenous in SK-Hep1)); test: co-IP; SK-Hep1 cells not treated with HGF; lysate in co-IP buffer (0.5% NP-40, 25 mM Tris-HCl, 150 mM NaCl, 2 mM EDTA); IP with anti-SAAL1 or anti-Met antibody and protein G magnetic beads; Western blot
[3] = target: Met (human (endogenous in SK-Hep1)) (UniProt P08581); test: co-IP; SK-Hep1 cells serum-starved 16 h, stimulated with 50 ng/mL HGF for one hour; lysate in co-IP buffer (0.5% NP-40, 25 mM Tris-HCl, 150 mM NaCl, 2 mM EDTA); IP with anti-SAAL1 or anti-Met antibody and protein G magnetic beads; Western blot
[4] = target: Met (human (endogenous in SK-Hep1)) (UniProt P08581); test: co-IP; SK-Hep1 cells not treated with HGF; lysate in co-IP buffer (0.5% NP-40, 25 mM Tris-HCl, 150 mM NaCl, 2 mM EDTA); IP with anti-SAAL1 or anti-Met antibody and protein G magnetic beads; Western blot

Row | Molecule | binding [1] | binding [2] | binding [3] | binding [4]
1 | Met (from UniProt P08581 25-1390) (receptor) | no binding | no binding |  | 
2 | Serum amyloid A-like 1 (SAAL1) (protein, UniProt Q96ER3 1-474) MDRNPSPPPPGRDKEEEEEVAGGDCIGSTVYSKHWLFGVLSGLIQIVSPENTKSSSDDEEQLTELDEEMENEICRVWDMSMDEDVALFLQEFNAPDIFMGVLAKSKCPRLREICVGILGNMACFQEICVSISSDKNLGQVLLHCLYDSDPPTLLETSRLLLTCLSQAEVASVWVERIQEHPAIYDSICFIMSSSTNVDLLVKVGEVVDKLFDLDEKLMLEWVRNGAAQPLDQPQEESEEQPVFRLVPCILEAAKQVRSENPEWLDVYMHILQLLTTVDDGIQAIVHCPDTGKDIWNLLFDLVCHEFCQSDDPPIILQEQKTVLASVFSVLSAIYASQTEQEYLKIEKVDLPLIDSLIRVLQNMEQCQKKPENSAESNTEETKRTDLTQDDFHLKILKDILCEFLSNIFQALTKETVAQGVKEGQLSKQKCSSAFQNLLPFYSPVVEDFIKILREVDKALADDLEKNFPSLKVQT |  |  | no binding | no binding
